These are yes or no findings as the source states them, for the method shown. Binding seen in cells or lysates may run through a third protein. Some binding calls cover weakened binding; strength is not graded here. For some assays here: Sequences can lack the tags named with a protein.
How the values were obtained:
[1] = target: signal transducer and activator of transcription 3 (STAT3), endogenous in chemoresistant HCT116 sublines (human (endogenous in HCT116 sublines)), P40763; experiment: co-IP; lysates of MG132-pretreated HCT/FuR-SA14 cells precipitated with anti-STAT3 or anti-SA14 antibodies, Western blot for SA14 and STAT3; conditions: remark: other sources report otherwise
[2] = target: GST-tagged full-length STAT3 (GST-STAT3), P40763; experiment: pull-down; GSH-agarose-bound recombinant GST-STAT3 incubated with whole-cell lysate from HCT/P cells; GSH-agarose-bound GST as control; only the target purified; conditions: remark: other sources report otherwise

Row | binding [1] | binding [2] | Binder
1 | binds | – | S100A14 (SA14), stably overexpressed from pCMV6-Myc-DDK-SA14 in HCT/FuR-SA14 cells, Q9HCY8 1-104 (protein) MGQCRSANAEDAQEFSDVERAIETLIKNFHQYSVEGGKETLTPSELRDLVTQQLPHLMPSNCGLEEKIANLGSCNDSKLEFRSFWELIGEAAKSVKLERPVRGH
2 | – | binds | S100A14 (SA14), endogenous in parental HCT116 (HCT/P) cells, Q9HCY8 1-104 (protein) MGQCRSANAEDAQEFSDVERAIETLIKNFHQYSVEGGKETLTPSELRDLVTQQLPHLMPSNCGLEEKIANLGSCNDSKLEFRSFWELIGEAAKSVKLERPVRGH
